Measurements reported in PubChem BioAssay AID504786 (Drosophila RNAi Screening Center, 2011)

- Assay: 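Knock-downs reducing HIF reporter induction by the iron chelator DFO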 (primary screen)
- Cells: Drosophila S2 cells with a stable HIF luciferase reporter
- Reagents: long dsRNA against Drosophila genes, about 0.2 µg dsRNA per well of a 384-well plate
- Duration: three days of knock-down, then 20 h of DFO before reading
- Challenge: desferrioxamine (DFO) at 100 µM, an iron chelator that mimics hypoxia, for 20 h
- Measurement: 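Firefly luciferase driven by the mouse ldh-a hypoxia-response element, measured after 20 h of 100 µM DFO; z-scores per plate, higher means more signal lost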
- Reading the numbers: z-score: higher = stronger loss of HIF reporter signal
The deposit covers about 21,000 reagents; this is an unselected part of those that have a named target and a result. 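Primary screen; positive scores mean lost reporter signal, so the sign may be inverted from the usual convention.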 A plus sign joins genes that one reagent is predicted to hit. Further read-outs or replicates are left out here.

z-score, replicate 1, by gene and reagent
CG13084: DRSC02188 -0.2
BRWD3: DRSC15369 1.9; DRSC16032 1.8
CG14259: DRSC14754 -0.4
CG7573: DRSC10884 -0.3
Rbcn-3A (Rabconnectin-3A): DRSC18314 -0.2
CG10177: DRSC14201 -0.3
CG31674: DRSC03208 -0.2
CG1927: DRSC08146 -0.3
CG17650: DRSC00510 -0.3
Mal-A4 (Maltase A4): DRSC07236 -0.3
CG9406: DRSC04552 -0.2
wat (waterproof): DRSC14854 -0.3
RpS20 (Ribosomal protein S20): DRSC16836 3.8

Copied from the list:
Rbcn-3A (Rabconnectin-3A) [DRSC18314], z-score, replicate 1: -0.2
Value for CG31674 [DRSC03208] under “z-score, replicate 1”: -0.2
RpS20 (Ribosomal protein S20) [DRSC16836], z-score, replicate 1 = 3.8

More entries follow:
z-score, replicate 1, by gene and reagent
Ubc6 (Ubiquitin conjugating enzyme 6): DRSC12370 0.1
jigr1 (jing interacting gene regulatory 1): DRSC13724 -0.3; DRSC15233 -0.1
CG5114: DRSC10482 -0.1
Unc-115a (Uncoordinated 115a): DRSC12749 -0.2
Psf1 (Partner of Sld Five 1): DRSC08638 -0.2
CG11019 (retired record): DRSC02117 0.3
awd (abnormal wing discs): DRSC16906 -0.4
AIMP2 (aaRS-interacting multifunctional protein 2): DRSC09877 -0.3
Marf (Mitochondrial assembly regulatory factor): DRSC18329 0.7
CG14323: DRSC14802 0
CG14907 + Mettl4: DRSC15026 -0.5; DRSC15027 -0.4
CG14691: DRSC14914 -0.3
Gr64d + Gr64e: DRSC08446 -0.4
ppk29 (pickpocket 29): DRSC04205 0
fra (frazzled): DRSC07621 -0.3
CG15029 (retired record): DRSC19610 -0.3
beta'COP (Coat Protein (coatomer) beta'): DRSC03492 0
CG34462: DRSC10768 0.1
